Source: PubChem BioAssay AID1259308 (NCATS, 2017)
This is an unselected part of about 59,000 reagents tested. Over the whole deposit, about 1,510 (2.6%) were called active. 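Calls use total luciferase alone and ignore viability, so some active siRNAs may act by altering cell number.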 The numbers tell different reagents against one gene apart.

Test: 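Candidate targets for better recombinant protein yield in mammalian cells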 (primary screen)
System: human HEK293 embryonic kidney cells stably expressing firefly luciferase (HEK-CMV-Luc2-Hygro)
Reagents: single siRNA against human genes, 0.8 pmol siRNA per well
Time to read-out: 72 h
Read-out: 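Luciferase light (ONE-Glo) measured on one replicate plate set and viability (CellTiter-Glo) on the other, scaled to a negative control siRNA, with robust z-scores and luciferase per cell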
Reading the numbers: total luciferase, z-score and total luciferase, % of control: higher = more reporter protein produced; luciferase per cell, z-score: higher = more reporter output per viable cell; viable cells, % of control: higher = more viable cells
Hit rule: 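An siRNA counts as active if its total luciferase robust z-score exceeds 3; genes with two or more such siRNAs out of three were retested with fresh siRNAs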
Meaning of the calls: active = raised luciferase; inactive = no rise

Gene,siRNA no.,"total luciferase, z-score","total luciferase, % of control","luciferase per cell, z-score","viable cells, % of control",outcome
CAMK2A (GeneID 815),1,-1.42,53.6,-0.407,66.7,inactive
CAMK2A (GeneID 815),2,0.515,92.1,-0.242,110,inactive
CAMK2A (GeneID 815),3,-0.213,77.6,0.0668,85.3,inactive
STX16 (GeneID 8675),1,3.42,150,4.35,53.2,active
STX16 (GeneID 8675),2,-0.744,67.1,-0.898,95,inactive
STX16 (GeneID 8675),3,2.25,127,1.95,84.7,inactive
LRGUK (GeneID 136332),1,-1.35,55,0.0983,59.9,inactive
LRGUK (GeneID 136332),2,1.03,102,0.301,106,inactive
LRGUK (GeneID 136332),3,1.5,112,1.93,75,inactive
SDR16C6P (GeneID 442388),1,-0.113,79.6,-0.347,97.5,inactive
SDR16C6P (GeneID 442388),2,0.645,94.7,-0.283,114,inactive
SDR16C6P (GeneID 442388),3,-0.0194,81.5,-0.568,106,inactive
GABPA (GeneID 2551),1,-0.685,68.3,-0.874,96,inactive
GABPA (GeneID 2551),2,-0.522,71.5,-0.254,85.4,inactive
GABPA (GeneID 2551),3,0.924,100,0.568,96.5,inactive
TCEAL4 (GeneID 79921),1,1.13,104,0.549,101,inactive
TCEAL4 (GeneID 79921),2,1.27,107,1.62,78.2,inactive
TCEAL4 (GeneID 79921),3,1.57,113,1.76,79.6,inactive
GSDMC (GeneID 56169),1,-1.36,54.9,-0.726,74.2,inactive
GSDMC (GeneID 56169),2,-0.942,63.1,-1.02,92.3,inactive
GSDMC (GeneID 56169),3,-2.13,39.5,-1.98,74.3,inactive
NPHS1 (GeneID 4868),1,0.89,99.6,-0.0338,112,inactive
NPHS1 (GeneID 4868),2,0.514,92.1,-0.336,112,inactive
NPHS1 (GeneID 4868),3,1.42,110,0.956,95.7,inactive
FAM201B (GeneID 339742),1,1.65,115,1.07,96.6,inactive
FAM201B (GeneID 339742),2,0.0272,82.4,-0.193,96.9,inactive
FAM201B (GeneID 339742),3,-1.05,61.1,-1.61,104,inactive
KLKB1 (GeneID 3818),1,-0.624,69.5,-0.0463,78.6,inactive
KLKB1 (GeneID 3818),2,-0.0618,80.7,0.704,74.9,inactive
KLKB1 (GeneID 3818),3,0.023,82.3,0.253,86.1,inactive
KLHL41 (GeneID 10324),1,1.06,103,0.486,101,inactive
KLHL41 (GeneID 10324),2,0.365,89.1,0.446,88.6,inactive
KLHL41 (GeneID 10324),3,-0.579,70.4,-0.354,86.3,inactive
ST8SIA1 (GeneID 6489),1,-1.85,45,-1.88,82.5,inactive
ST8SIA1 (GeneID 6489),2,-0.537,71.2,-0.796,98.1,inactive
ST8SIA1 (GeneID 6489),3,-0.781,66.3,-0.109,76.3,inactive
STIP1 (GeneID 10963),1,-0.743,67.1,-0.79,92.3,inactive
STIP1 (GeneID 10963),2,-0.728,67.4,-0.943,96.6,inactive
STIP1 (GeneID 10963),3,-0.201,77.9,-1.04,114,inactive
PSENEN (GeneID 55851),1,0.177,85.4,-0.38,105,inactive
PSENEN (GeneID 55851),2,0.18,85.5,0.187,90.9,inactive
PSENEN (GeneID 55851),3,-0.0411,81.1,-0.187,95.2,inactive
ZNF626 (GeneID 199777),1,5.21,186,3.25,88.2,active
ZNF626 (GeneID 199777),2,1.05,103,0.501,101,inactive
ZNF626 (GeneID 199777),3,-0.182,78.3,-0.737,106,inactive
CBR1 (GeneID 873),1,2.17,125,2.11,80.2,inactive
CBR1 (GeneID 873),2,-0.734,67.3,-0.716,90.8,inactive
CBR1 (GeneID 873),3,0.967,101,1.35,79.3,inactive
VPS39 (GeneID 23339),1,0.995,102,1.6,74.6,inactive
VPS39 (GeneID 23339),2,-0.212,77.7,-0.227,92.1,inactive
VPS39 (GeneID 23339),3,1.02,102,1.28,81.6,inactive
ASH1L (GeneID 55870),1,-0.265,76.6,-0.801,106,inactive
ASH1L (GeneID 55870),2,0.299,87.8,-0.582,114,inactive
ASH1L (GeneID 55870),3,-1.6,50,-1.5,83,inactive
POLR2K (GeneID 5440),1,-1.88,44.5,-0.773,61,inactive
POLR2K (GeneID 5440),2,0.256,87,-0.134,101,inactive
POLR2K (GeneID 5440),3,-2.26,37,-2.6,82,inactive

Part of the list above, showing only “total luciferase, z-score”:
ST8SIA1 (GeneID 6489) #1 = -1.85
ST8SIA1 (GeneID 6489) #2 = -0.537
ST8SIA1 (GeneID 6489) #3 = -0.781
STIP1 (GeneID 10963) #1 = -0.743
STIP1 (GeneID 10963) #2 = -0.728
STIP1 (GeneID 10963) #3 = -0.201
PSENEN (GeneID 55851) #1 = 0.177
PSENEN (GeneID 55851) #2 = 0.18
